Experimental data: publication PMC6265295
No constants are given. Whether binding was seen depends on the method and setting. In cells and extracts the contact can be indirect. Some binding calls cover weakened binding; strength is not graded here.

Target: GFP-Rab35, Q15286
Assay: co-IP; GFP-tagged proteins were immunoprecipitated from lysates of transfected H1299 cells (p53-/- or p53R273H) with an anti-GFP antibody conjugated to magnetic beads. Partners were detected by western blotting.
Details: remark: other sources report otherwise

- binding: binds
B1: Podocalyxin (PODXL), endogenous, O00592 23-558 (protein)
chain: SPSPSPSPSQNATQTTTDSSNKTAPTPASSVTIMATDTAQQSTVPTSKANEILASVKATTLGVSSDSPGTTTLAQQVSGPVNTTVARGGGSGNPTTTIESPKSTKSADTTTVATSTATAKPNTTSSQNGAEDTTNSGGKSSHSVTTDLTSTKAEHLTTPHPTSPLSPRQPTSTHPVATPTSSGHDHLMKISSSSSTVAIPGYTFTSPGMTTTLLETVFHHVSQAGLELLTSGDLPTLASQSAGITASSVISQRTQQTSSQMPASSTAPSSQETVQPTSPATALRTPTLPETMSSSPTAASTTHRYPKTPSPTVAHESNWAKCEDLETQTQSEKQLVLNLTGNTLCAGGASDEKLISLICRAVKATFNPAQDKCGIRLASVPGSQTVVVKEITIHTKLPAKDVYERLKDKWDELKEAGVSDMKLGDQGPPEEAEDRFSMPLIITIVCMASFLLLVAALYGCCHQRLSQRKDQQRLTEELQTVENGYHDNPTLEVMETSSEMQEKKVVSLNGELGDSWIVPLDNLTKDDLDEEEDTHL
